# According to the supplement of paper PMC11438910:
# The other results are listed elsewhere or left out. The signal is at background level for most entries.
# How the values were obtained:
# Experiment in all cases: fluorescence intensity of antibody binding to polysaccharide-coupled beads; higher = stronger binding
# [1] = target: pneumococcal polysaccharide Pn11F
# [2] = target: pneumococcal polysaccharide Pn12A
# [3] = target: pneumococcal polysaccharide Pn12B
# [4] = target: pneumococcal polysaccharide Pn12F
# [5] = target: pneumococcal polysaccharide Pn13
# [6] = target: pneumococcal polysaccharide Pn14
# [7] = target: pneumococcal polysaccharide Pn15A
# [8] = target: pneumococcal polysaccharide Pn15B
# [9] = target: pneumococcal polysaccharide Pn15C
# [10] = target: pneumococcal polysaccharide Pn15F
# [11] = target: pneumococcal polysaccharide Pn16A
# [12] = target: pneumococcal polysaccharide Pn16F
# [13] = antibody concentration 2.8593 ng/mL
# [14] = antibody concentration 15.2894 ng/mL
# [15] = antibody concentration 81.7561 ng/mL
# [16] = antibody concentration 437.17 ng/mL
# [17] = antibody concentration 2337.65 ng/mL
# [18] = antibody concentration 12500 ng/mL
# [19] = antibody concentration 0.1 ng/mL
# [20] = antibody concentration 0.534724 ng/mL
binder,measurement,setting,value
4-127.2 (protein) chain 1: QVQLQESGPGLVKPSETLSLTCAVSGYSVNSGHGWTWIRQSPGKGLEWIGYIGGGSGSSNYNPSLKSRVTISKDTSNNQLSLKLRSLTTADTAMYYCARRVPADRSGNDYWGQGVLVTVSS chain 2: QSVLTQPPSVSGDPGQRVTISCTGSSSNIGDYYGYWYQQFPGTAPKLLIFDDNNRPSGISDRFSGSKAGTSASLTITGLQPGDEADYYCGAWDGSLNAHVFGSGTKLTVL,fluorescence intensity,[1]; [13],14 MFI
same,fluorescence intensity,[1]; [14],13 MFI
same,fluorescence intensity,[1]; [15],14 MFI
same,fluorescence intensity,[1]; [16],16 MFI
same,fluorescence intensity,[1]; [17],17 MFI
same,fluorescence intensity,[1]; [18],26.5 MFI
same,fluorescence intensity,[2]; [19],15 MFI
same,fluorescence intensity,[2]; [20],15.5 MFI
same,fluorescence intensity,[2]; [13],13.5 MFI
same,fluorescence intensity,[2]; [14],15 MFI
same,fluorescence intensity,[2]; [15],14 MFI
same,fluorescence intensity,[2]; [16],15.5 MFI
same,fluorescence intensity,[2]; [17],18 MFI
same,fluorescence intensity,[2]; [18],39 MFI
same,fluorescence intensity,[3]; [19],15.5 MFI
same,fluorescence intensity,[3]; [20],14.8 MFI
same,fluorescence intensity,[3]; [13],16 MFI
same,fluorescence intensity,[3]; [14],15.5 MFI
same,fluorescence intensity,[3]; [15],16.5 MFI
same,fluorescence intensity,[3]; [16],15 MFI
same,fluorescence intensity,[3]; [17],19 MFI
same,fluorescence intensity,[3]; [18],40 MFI
same,fluorescence intensity,[4]; [19],19 MFI
same,fluorescence intensity,[4]; [20],18 MFI
same,fluorescence intensity,[4]; [13],18.5 MFI
same,fluorescence intensity,[4]; [14],16.5 MFI
same,fluorescence intensity,[4]; [15],18 MFI
same,fluorescence intensity,[4]; [16],21 MFI
same,fluorescence intensity,[4]; [17],26.5 MFI
same,fluorescence intensity,[4]; [18],63 MFI
same,fluorescence intensity,[5]; [19],17.8 MFI
same,fluorescence intensity,[5]; [20],18 MFI
same,fluorescence intensity,[5]; [13],17 MFI
same,fluorescence intensity,[5]; [14],17.8 MFI
same,fluorescence intensity,[5]; [15],18.5 MFI
same,fluorescence intensity,[5]; [16],19 MFI
same,fluorescence intensity,[5]; [17],20.5 MFI
same,fluorescence intensity,[5]; [18],47.5 MFI
same,fluorescence intensity,[6]; [19],14 MFI
same,fluorescence intensity,[6]; [20],13 MFI
same,fluorescence intensity,[6]; [13],13 MFI
same,fluorescence intensity,[6]; [14],14.5 MFI
same,fluorescence intensity,[6]; [15],14.5 MFI
same,fluorescence intensity,[6]; [16],19.2 MFI
same,fluorescence intensity,[6]; [17],41.5 MFI
same,fluorescence intensity,[6]; [18],280 MFI
same,fluorescence intensity,[7]; [19],13 MFI
same,fluorescence intensity,[7]; [20],12.5 MFI
same,fluorescence intensity,[7]; [13],12 MFI
same,fluorescence intensity,[7]; [14],12.5 MFI
same,fluorescence intensity,[7]; [15],12 MFI
same,fluorescence intensity,[7]; [16],13.5 MFI
same,fluorescence intensity,[7]; [17],13.5 MFI
same,fluorescence intensity,[7]; [18],17 MFI
same,fluorescence intensity,[8]; [19],17.5 MFI
same,fluorescence intensity,[8]; [20],19 MFI
same,fluorescence intensity,[8]; [13],19 MFI
same,fluorescence intensity,[8]; [14],18 MFI
same,fluorescence intensity,[8]; [15],17 MFI
same,fluorescence intensity,[8]; [16],24 MFI
same,fluorescence intensity,[8]; [17],24 MFI
same,fluorescence intensity,[8]; [18],29 MFI
same,fluorescence intensity,[9]; [19],15.2 MFI
same,fluorescence intensity,[9]; [20],16.5 MFI
same,fluorescence intensity,[9]; [13],16.5 MFI
same,fluorescence intensity,[9]; [14],15.5 MFI
same,fluorescence intensity,[9]; [15],18 MFI
same,fluorescence intensity,[9]; [16],17 MFI
same,fluorescence intensity,[9]; [17],20.8 MFI
same,fluorescence intensity,[9]; [18],22.8 MFI
same,fluorescence intensity,[10]; [19],16 MFI
same,fluorescence intensity,[10]; [20],18 MFI
same,fluorescence intensity,[10]; [13],16.5 MFI
same,fluorescence intensity,[10]; [14],18.5 MFI
same,fluorescence intensity,[10]; [15],17.5 MFI
same,fluorescence intensity,[10]; [16],17 MFI
same,fluorescence intensity,[10]; [17],19.5 MFI
same,fluorescence intensity,[10]; [18],34 MFI
same,fluorescence intensity,[11]; [19],14 MFI
same,fluorescence intensity,[11]; [20],14 MFI
same,fluorescence intensity,[11]; [13],12.8 MFI
same,fluorescence intensity,[11]; [14],15.8 MFI
same,fluorescence intensity,[11]; [15],15.5 MFI
same,fluorescence intensity,[11]; [16],14.5 MFI
same,fluorescence intensity,[11]; [17],15 MFI
same,fluorescence intensity,[11]; [18],25.5 MFI
same,fluorescence intensity,[12]; [19],23.8 MFI
same,fluorescence intensity,[12]; [20],22 MFI
same,fluorescence intensity,[12]; [13],23 MFI
same,fluorescence intensity,[12]; [14],23.2 MFI

# A second format for part of the listing above:
binder	measurement	setting	value
4-127.2 (protein) chain 1: QVQLQESGPGLVKPSETLSLTCAVSGYSVNSGHGWTWIRQSPGKGLEWIGYIGGGSGSSNYNPSLKSRVTISKDTSNNQLSLKLRSLTTADTAMYYCARRVPADRSGNDYWGQGVLVTVSS chain 2: QSVLTQPPSVSGDPGQRVTISCTGSSSNIGDYYGYWYQQFPGTAPKLLIFDDNNRPSGISDRFSGSKAGTSASLTITGLQPGDEADYYCGAWDGSLNAHVFGSGTKLTVL	fluorescence intensity	[3]; [17]	19 MFI
same	fluorescence intensity	[7]; [14]	12.5 MFI
same	fluorescence intensity	[7]; [17]	13.5 MFI
